Like-named read-outs stand apart in the source and are kept apart here. No constants are given. Whether binding was seen depends on the method and setting. Binding seen in cells or lysates may run through a third protein. A yes stands for co-enrichment or nearness to the bait. Other partners may have been found. For part of these data: No binding means not detected with the bait.
T1: γ-sarcoglycan (Sgcg), endogenous in mouse muscle (mouse (endogenous in gastrocnemius muscle)) (UniProt P82348)
T1 sequence: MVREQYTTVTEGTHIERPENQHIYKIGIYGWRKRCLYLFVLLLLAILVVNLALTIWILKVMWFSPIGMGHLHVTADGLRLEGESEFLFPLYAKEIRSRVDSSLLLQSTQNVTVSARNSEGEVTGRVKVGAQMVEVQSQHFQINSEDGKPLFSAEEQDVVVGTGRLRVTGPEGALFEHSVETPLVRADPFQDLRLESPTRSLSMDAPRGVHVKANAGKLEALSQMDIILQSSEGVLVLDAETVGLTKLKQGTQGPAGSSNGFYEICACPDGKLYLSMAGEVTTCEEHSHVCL

By UniProt entry, the sequences of proteins in these tests, tags left out.
UniProt P10637: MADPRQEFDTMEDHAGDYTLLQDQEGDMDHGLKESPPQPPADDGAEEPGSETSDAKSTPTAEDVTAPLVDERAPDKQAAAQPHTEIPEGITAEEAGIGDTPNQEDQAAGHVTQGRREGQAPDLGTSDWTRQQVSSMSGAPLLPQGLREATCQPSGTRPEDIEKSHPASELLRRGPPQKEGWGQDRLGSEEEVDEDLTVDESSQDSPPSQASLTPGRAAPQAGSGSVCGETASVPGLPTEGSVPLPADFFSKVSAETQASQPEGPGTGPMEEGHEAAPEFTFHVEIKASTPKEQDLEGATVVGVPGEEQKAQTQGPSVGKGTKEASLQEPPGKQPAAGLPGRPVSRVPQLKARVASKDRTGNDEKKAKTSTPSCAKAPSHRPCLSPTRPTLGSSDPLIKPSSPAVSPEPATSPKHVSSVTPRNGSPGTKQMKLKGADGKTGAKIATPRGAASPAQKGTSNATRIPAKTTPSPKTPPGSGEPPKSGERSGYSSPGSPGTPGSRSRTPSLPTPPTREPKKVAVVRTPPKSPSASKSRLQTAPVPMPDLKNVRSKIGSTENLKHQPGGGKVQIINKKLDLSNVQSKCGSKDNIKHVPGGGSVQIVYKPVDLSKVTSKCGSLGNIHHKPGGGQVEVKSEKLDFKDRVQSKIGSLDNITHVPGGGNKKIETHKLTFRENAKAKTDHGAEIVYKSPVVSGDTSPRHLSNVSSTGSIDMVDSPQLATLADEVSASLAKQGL
UniProt P09405: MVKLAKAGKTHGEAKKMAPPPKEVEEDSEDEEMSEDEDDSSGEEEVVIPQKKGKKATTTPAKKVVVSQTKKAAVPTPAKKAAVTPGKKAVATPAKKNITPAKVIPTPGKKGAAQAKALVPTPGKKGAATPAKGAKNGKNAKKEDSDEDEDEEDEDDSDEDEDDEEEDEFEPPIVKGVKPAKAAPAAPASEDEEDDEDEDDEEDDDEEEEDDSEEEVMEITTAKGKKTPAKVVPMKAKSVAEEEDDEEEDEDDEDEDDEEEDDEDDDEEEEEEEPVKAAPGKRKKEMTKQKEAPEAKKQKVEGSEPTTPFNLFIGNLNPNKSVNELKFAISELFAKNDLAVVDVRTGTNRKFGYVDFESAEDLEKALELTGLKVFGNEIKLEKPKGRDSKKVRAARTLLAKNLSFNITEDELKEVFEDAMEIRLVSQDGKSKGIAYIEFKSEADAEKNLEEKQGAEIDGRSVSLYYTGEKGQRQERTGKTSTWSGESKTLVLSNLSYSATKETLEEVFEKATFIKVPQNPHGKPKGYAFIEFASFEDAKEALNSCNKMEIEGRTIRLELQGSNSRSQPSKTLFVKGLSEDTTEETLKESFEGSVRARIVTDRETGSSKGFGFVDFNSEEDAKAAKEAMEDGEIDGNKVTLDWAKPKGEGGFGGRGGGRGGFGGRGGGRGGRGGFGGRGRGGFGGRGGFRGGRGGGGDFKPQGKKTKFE
UniProt Q9JJG0: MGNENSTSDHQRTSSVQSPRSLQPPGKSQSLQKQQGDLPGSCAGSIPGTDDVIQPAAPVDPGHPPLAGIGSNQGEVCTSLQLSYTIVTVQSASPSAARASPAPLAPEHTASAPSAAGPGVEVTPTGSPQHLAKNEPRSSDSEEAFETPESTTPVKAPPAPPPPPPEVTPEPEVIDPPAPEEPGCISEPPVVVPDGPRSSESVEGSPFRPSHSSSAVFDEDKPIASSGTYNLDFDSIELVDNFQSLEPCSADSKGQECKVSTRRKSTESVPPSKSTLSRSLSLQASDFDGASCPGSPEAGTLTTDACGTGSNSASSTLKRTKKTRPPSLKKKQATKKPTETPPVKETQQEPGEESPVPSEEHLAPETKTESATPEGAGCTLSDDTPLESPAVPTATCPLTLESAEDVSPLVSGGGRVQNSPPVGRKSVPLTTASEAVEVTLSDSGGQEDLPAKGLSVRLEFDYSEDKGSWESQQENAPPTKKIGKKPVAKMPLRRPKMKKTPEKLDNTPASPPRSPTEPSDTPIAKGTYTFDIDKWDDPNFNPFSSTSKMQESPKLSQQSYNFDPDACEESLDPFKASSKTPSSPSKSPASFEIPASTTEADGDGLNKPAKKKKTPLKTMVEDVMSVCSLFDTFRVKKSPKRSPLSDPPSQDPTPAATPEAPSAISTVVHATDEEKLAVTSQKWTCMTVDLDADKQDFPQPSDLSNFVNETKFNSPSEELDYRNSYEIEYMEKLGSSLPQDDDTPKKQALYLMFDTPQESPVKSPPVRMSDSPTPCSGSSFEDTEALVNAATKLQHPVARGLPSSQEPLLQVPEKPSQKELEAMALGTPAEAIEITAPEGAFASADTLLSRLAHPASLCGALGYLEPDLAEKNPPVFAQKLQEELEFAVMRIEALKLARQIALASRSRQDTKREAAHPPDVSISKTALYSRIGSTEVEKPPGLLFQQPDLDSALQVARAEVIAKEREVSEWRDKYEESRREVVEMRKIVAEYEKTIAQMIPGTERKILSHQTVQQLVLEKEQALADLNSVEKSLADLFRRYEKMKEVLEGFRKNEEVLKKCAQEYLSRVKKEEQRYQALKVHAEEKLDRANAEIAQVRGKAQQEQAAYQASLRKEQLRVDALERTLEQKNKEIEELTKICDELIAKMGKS

T2: γ-sarcoglycan (Sgcg), endogenous in mouse muscle (mouse (endogenous in gastrocnemius muscle)), P82348
T2 chain: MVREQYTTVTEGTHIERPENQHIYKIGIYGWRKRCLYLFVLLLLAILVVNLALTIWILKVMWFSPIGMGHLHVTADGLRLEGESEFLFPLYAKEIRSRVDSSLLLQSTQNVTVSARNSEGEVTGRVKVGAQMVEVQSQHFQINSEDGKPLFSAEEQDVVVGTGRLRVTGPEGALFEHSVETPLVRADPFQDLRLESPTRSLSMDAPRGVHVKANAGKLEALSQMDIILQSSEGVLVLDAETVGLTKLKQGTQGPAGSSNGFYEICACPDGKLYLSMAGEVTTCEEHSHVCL

B1: α-sarcoglycan (Sgca), P82350 24-387 (protein)
chain: QQTTLHLLVGRVFVHPLEHATFLRLPEHVAVPPTVRLTYHAHLQGHPDLPRWLHYTQRSPYNPGFLYGSPTPEDRGYQVIEVTAYNRDSFDTTRQRLLLLIGDPEGPRLPYQAEFLVRSHDVEEVLPTTPANRFLTALGGLWEPGELQLLNITSALDRGGRVPLPIEGRKEGVYIKVGSATPFSTCLKMVASPDSYARCAQGQPPLLSCYDTLAPHFRVDWCNVSLVDKSVPEPLDEVPTPGDGILEHDPFFCPPTEATDRDFLTDALVTLLVPLLVALLLTLLLAYIMCFRREGRLKRDMATSDIQMFHHCSIHGNTEELRQMAASREVPRPLSTLPMFNVRTGERLPPRVDSAQMPLILDQH
B2: Tensin 2 (protein, UniProt Q8CGB6 1-1400)
chain: MKSSGPVERLLRALGRRDSSRATSRPRKAEPHSFREKVFRKKTPVCAVCKVTIDGTGVSCRVCKVATHRKCEAKVTSSCQALPPAELRRSTAPVRRIEHLGSTKSLNHSKQRSTLPRSFSLDPLMERRWDLDLTYVTERILAAAFPARPDEQRHRGHLRELAHVLQSKHRDKYLLFNLSEKRHDLTRLNPKVQDFGWPELHAPPLDKLCSICKAMETWLSADPQHVVVLYCKGSKGKLGVIVSAYMHYSKISAGADQALATLTMRKFCEDKVATELQPSQRRYVSYFSGLLSGSIRMNSSPLFLHYVFVPVLPAFEPNTGFQPFLKIYQSMQLVYTSGVYRIAGPGPQQLCISLEPALLLKGDVMVTCYHKGGQGTDRTLVFRVQFHTCTIHGSRLTFPKDQLDEAWADERFPFQASVEFVFSSSPEKVKGNTPRNDPSVSVDYNTTEPAVRWDSYENFNQHHEDSVDGALAHTRGPLDGSPYAQVQRVPRQTPPAPSPELPPPPMLSVSSDSGHSSTLTTEHTAESPGRPPPTAAERQELDRLLGGCGVASAGRGAGRETAILDDEEQPSVGGGLHLGMYSGHRPGLSRRCSCRQGFREPCGVPNGSYYRPEGTLERRRPPYGGYEGHPQGYAEASVEKRRLCRSLSEGPYPYAPELGKPANGDFGYRPAGYREVVILEDPGVPALCSCPACEEKLALPTAALYGLRLEREAAEGWSSEVGKPLLHPVRPGHPLPLLVPACGHHHAPMPDYGCLKPPKVGEEGHEGCSYAVCSEGRYGHSGYPALVTYGYGGAVPSYCPAYGRAPHSCGSPSEGRGYPSPGAHSPRAGSVSPGSPPYLQPRKLGYEISAEDGRDKYPLSGHLASTGPLASTESPEPSWRDGSSGHSTLPRSPRDPQCSASSELSGPSTPLHTSSPVQGKESNRRQDTTRSPSLAPTQRLSPGEALPSVVQGVAEKTPELLTSSRPEQLDPSPFSQTSAPGSPNGWPQERSPGGHTNSASPRSPVPTTLPGLRHAPWQGPRGTSDSPDGSPLTPVPTQMPWLVGSPEPPQSSPTPAFPLATSYDANGPIQPPLPEKRHLPGSGQQPSPPARSTNQHVTFASPLPDVTQPPEHPLQENQSNVKFVQDTSKFWYKPHLSRDQAIALLKDKDPGAFLIRDSHSFQGAYGLALKVATPPPSAQPWKGDPSEQLVRHFLIETGPKGVKIKGCPTEPYFGSLSALVSQHSISPISLPCCLRIPSKDPLEETPEAPVPTNMSTAADLLRQGAACSVLYLTSVETESLTGPQAVAKASSAALSCSPVPVPAIVHFKVSAQGITLTDNQRKLFFRRHYPVNSITFSSTDPQDRRWTNPDGATSKIFGFVAKKPGSPWENVCHLFAELDPDQPASAIVTFITKVLLGQRK
B3: Myotilin (protein, UniProt Q9JIF9 1-496)
chain: MFNYERPKHFIQPQNPCGSRLQPPGPEVSGFPSQTKQSSIVIQPRQCTEQRFSASSTVSSHITVSSSAYPAPQQLAGPNPGQKVTATYNQSPASFLSSILPSQPDYCNSKIPSTVDSNYQQSSVNQPVNAMSSQAANARPTPKTPDHEIQGSKEALIQDLERKLKCKDTLLHNGNQRLTYEEKMARRLLGPQNAAAVFQAQNSDVQDSPQHNPEQARLHVPTSQVRSRSSSRAEANDQDAIQEKFYPPRFIQVPENMSIEEGRFCRMDFKVSGLPAPDVSWYLNGRPVQSDELHKMIVSEKGFHSLIFEVVRASDAGPYACVARNRAGEATFTVQLDVLAKEHKRAPMFIFKPQSKKVFEGETVKLECQISAIPPPKLFWKRNNEMVQFNTDRISLYHDNAGRVTLLIKDVNKKDAGWYTVSAVNEAGVTTCNTRLDVTARPIQTLPAPKQLRVRPTFSKYLALNGRGLDVKQAFNPEGEFQRLAAQSGLYESEEL
B4: β-dystroglycan, Q62165 652-893 (protein)
chain: SIVVEWTNNTLPLEPCPKEQIIGLSRRIADENGKPRPAFSNALEPDFKALSIAVTGSGSCRHLQFIPVAPPSPGSSAAPATEVPDRDPEKSSEDDVYLHTVIPAVVVAAILLIAGIIAMICYRKKRKGKLTLEDQATFIKKGVPIIFADELDDSKPPPSSSMPLILQEEKAPLPPPEYPNQSMPETTPLNQDTVGEYTPLRDEDPNAPPYQPPPPFTAPMEGKGSRPKNMTPYRSPPPYVPP

Legend:
Assay in all cases: affinity purification with mass spectrometry; anti-Sgcg cross-linked to Protein A Dynabeads; RIPA1 extract (1% IGEPAL CA-630, 0.5% deoxycholate, 0.1% SDS) of the cytoskeleton-associated fraction of mouse gastrocnemius muscle (WT, Svil-/-); controls Sgcg-/- muscle and rabbit IgG; 2 h at 4 °C; LC-MS/MS, triplicates
[1] = target: T1, γ-sarcoglycan (Sgcg), endogenous in mouse muscle (mouse (endogenous in gastrocnemius muscle))
[2] = target: T2, γ-sarcoglycan (Sgcg), endogenous in …; conditions: remark: other sources report otherwise
[3] = target: T1, γ-sarcoglycan (Sgcg), endogenous in mouse muscle (mouse (endogenous in gastrocnemius muscle)); remark: listed apart in the source

Molecule	binding [1]	other results
eIF4G	binds	–
Ep215	binds	–
Mapt (from UniProt P10637 1-733)	binds	–
Nucleolin (from UniProt P09405 1-707)	binds	–
TACC2 (from UniProt Q9JJG0 1-1149)	binds	–
B1	–	binding [2]: binds
B2	–	binding [3]: binds
B3	–	binding [3]: binds
B4	–	binding [2]: no binding
